# Assay: Flux through human skin from articles of FIG. 4 (Example V)
# Settings: reservoir 10% drug
compound,measurement,setting,value
CN1C2CC(OC(=O)C(CO)c3ccccc3)CC1C1OC12 (centres unmarked) [SCOPOLAMINE],Flux Thru Human Skin,with membrane 1.25 mil EMA (20% MA),0.32 ug/cm^2 /hour
same,Flux Thru Human Skin,"without membrane, 35% PVC resin, 55% ADMEX 760",1.95 ug/cm^2 /hour
